{"sequences": {"note": "Amino acid sequences for entries named in this document (tags omitted).", "UniProt P69066": "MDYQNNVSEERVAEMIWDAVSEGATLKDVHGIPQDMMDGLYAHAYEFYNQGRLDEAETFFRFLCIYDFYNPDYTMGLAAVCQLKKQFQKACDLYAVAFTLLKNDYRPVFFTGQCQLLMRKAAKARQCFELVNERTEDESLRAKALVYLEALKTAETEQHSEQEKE"}, "source": "paper PMC7595419", "key": {"[1]": {"target": "T1, LexA_(DBDwt)-InvF (Salmonella Typhimurium) (UniProt P69343)", "T1 sequence": "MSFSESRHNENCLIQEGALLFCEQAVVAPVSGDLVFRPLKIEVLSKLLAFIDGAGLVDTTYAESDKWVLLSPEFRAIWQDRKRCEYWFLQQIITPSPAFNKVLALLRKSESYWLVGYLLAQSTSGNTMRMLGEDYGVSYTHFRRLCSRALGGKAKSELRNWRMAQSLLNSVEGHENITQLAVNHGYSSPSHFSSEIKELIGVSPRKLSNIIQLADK", "test": "two-hybrid; LexA-based bacterial two-hybrid, heterodimer system in E. coli SU202 (LexA_(DBDwt) fusion from pSR658 with LexA_(DBDmut) fusion from pSR659; interaction lowers β-galactosidase activity)"}, "[2]": {"target": "LexA_(DBDwt)-SicA (Salmonella Typhimurium) (UniProt P69066)", "test": "two-hybrid; LexA-based bacterial two-hybrid, heterodimer system in E. coli SU202 (LexA_(DBDwt) fusion from pSR658 with LexA_(DBDmut) fusion from pSR659; interaction lowers β-galactosidase activity)"}, "[3]": {"target": "LexA_(DBDwt)-SicA (Salmonella Typhimurium) (UniProt P69066)", "test": "two-hybrid"}}, "note": "Results are given in words; binding and its absence hold for the method and conditions named. Some results given as binding are weak or reduced against the parent protein; the word gives no strength."}
{"substance": "LexA_(DBDmut)-SicA (from UniProt P69066 1-165)", "values": [{"measurement": "binding", "setting": "[1]", "result": "binds"}, {"measurement": "binding", "setting": "[2]", "result": "binds"}]}
{"substance": "LexA_(DBDwt)-SicA (from UniProt P69066 1-165)", "values": [{"measurement": "binding", "setting": "[3]", "result": "binds"}]}
